The values below come from article PMC7000731.

Amino acid sequences for entries named in this document (tags omitted). Residues count along the entry.
UniProt P27773, residues 25-505: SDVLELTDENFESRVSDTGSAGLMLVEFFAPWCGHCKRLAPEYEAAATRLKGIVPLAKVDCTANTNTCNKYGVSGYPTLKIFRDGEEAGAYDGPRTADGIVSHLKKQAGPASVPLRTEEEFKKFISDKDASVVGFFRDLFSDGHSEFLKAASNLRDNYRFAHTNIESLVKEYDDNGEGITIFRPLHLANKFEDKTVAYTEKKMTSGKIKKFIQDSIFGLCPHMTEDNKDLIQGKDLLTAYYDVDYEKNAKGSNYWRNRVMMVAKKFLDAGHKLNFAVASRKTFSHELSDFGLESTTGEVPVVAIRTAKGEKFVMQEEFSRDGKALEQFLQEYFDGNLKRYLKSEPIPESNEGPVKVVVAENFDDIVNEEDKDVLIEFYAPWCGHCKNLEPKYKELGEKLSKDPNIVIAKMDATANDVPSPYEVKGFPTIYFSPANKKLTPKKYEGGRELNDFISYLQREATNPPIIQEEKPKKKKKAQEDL

These are yes or no findings as the source states them, for the method shown. Binding seen in cells or lysates may run through a third protein. Some entries that bind do so weakly or less than the wild type.

In the experiment the target is PDIA3 (mouse (endogenous in mouse gastrocnemius muscle or C2C12 cells)) (UniProt P27773). Kind of experiment: co-IP; total proteins of the lysate immunoprecipitated with an anti-PDIA3 antibody, immunoblotted with an anti-β3 integrin antibody; lysates of gastrocnemius 7 days after CTX injury or of differentiated myoblasts; n = 4.

B1: β3 integrin (receptor, UniProt O54890 26-787)
chain: ESNICTTRGVNSCQQCLAVSPVCAWCSDETLSQGSPRCNLKENLLKDNCAPESIEFPVSEAQILEARPLSSKGSGSSAQITQVSPQRIALRLRPDDSKIFSLQVRQVEDYPVDIYYLMDLSFSMKDDLSSIQTLGTKLASQMRKLTSNLRIGFGAFVDKPVSPYMYISPPQAIKNPCYNMKNACLPMFGYKHVLTLTDQVSRFNEEVKKQSVSRNRDAPEGGFDAIMQATVCDEKIGWRNDASHLLVFTTDAKTHIALDGRLAGIVLPNDGHCHIGTDNHYSASTTMDYPSLGLMTEKLSQKNINLIFAVTENVVSLYQNYSELIPGTTVGVLSDDSSNVLQLIVDAYGKIRSKVELEVRDLPEELSLSFNATCLNNEVIPGLKSCVGLKIGDTVSFSIEAKVRGCPQEKEQSFTIKPVGFKDSLTVQVTFDCDCACQAFAQPSSPRCNNGNGTFECGVCRCDQGWLGSMCECSEEDYRPSQQEECSPKEGQPICSQRGECLCGQCVCHSSDFGKITGKYCECDDFSCVRYKGEMCSGHGQCNCGDCVCDSDWTGYYCNCTTRTDTCMSTNGLLCSGRGNCECGSCVCVQPGSYGDTCEKCPTCPDACSFKKECVECKKFNRGTLHEENTCSRYCRDDIEQVKELTDTGKNAVNCTYKNEDDCVVRFQYYEDTSGRAVLYVVEEPECPKGPDILVVLLSVMGAILLIGLATLLIWKLLITIHDRKEFAKFEEERARAKWDTANNPLYKEATSTFTNITYRGT
In the case of B1, the binding result was “binds”.
